From the M2OR odorant receptor database
This is a selection; strong and weak results do not stand in their true shares. The calls were merged from several studies; some rest on single wells. This is one part of the list.

Tests used:
Settings in all cases: stereoisomer not certain
OR6B1 = tested on: T1, OR6B1
T1 sequence (whole entry): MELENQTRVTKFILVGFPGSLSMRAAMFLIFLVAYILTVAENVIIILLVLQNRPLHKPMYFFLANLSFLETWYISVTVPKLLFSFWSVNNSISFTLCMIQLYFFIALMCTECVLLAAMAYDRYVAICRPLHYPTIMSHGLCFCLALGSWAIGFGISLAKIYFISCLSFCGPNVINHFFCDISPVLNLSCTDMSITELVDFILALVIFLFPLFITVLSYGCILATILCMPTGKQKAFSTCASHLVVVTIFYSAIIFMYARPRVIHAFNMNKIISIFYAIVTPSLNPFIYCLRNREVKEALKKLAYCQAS
In short: (§1)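 Assay methods differ from source to source, frequently being transient luciferase assays in mammalian cell lines. For each receptor–molecule pair, the label responsive (active) applies when the original authors judged the measured signal statistically different from baseline, and non-responsive (inactive) applies otherwise.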

OR6B2 = tested on: T2, OR6B2
T2 sequence (whole entry): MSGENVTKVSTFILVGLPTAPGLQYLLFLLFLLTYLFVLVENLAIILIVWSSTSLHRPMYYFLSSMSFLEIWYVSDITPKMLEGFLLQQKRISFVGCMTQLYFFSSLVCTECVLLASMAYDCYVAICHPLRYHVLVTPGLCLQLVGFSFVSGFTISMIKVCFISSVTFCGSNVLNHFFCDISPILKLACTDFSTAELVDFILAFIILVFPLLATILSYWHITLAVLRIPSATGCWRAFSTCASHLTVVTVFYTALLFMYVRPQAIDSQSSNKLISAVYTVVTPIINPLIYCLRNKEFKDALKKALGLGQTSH
In short: as §1

OR6B3 = tested on: T3, OR6B3
T3 sequence (whole entry): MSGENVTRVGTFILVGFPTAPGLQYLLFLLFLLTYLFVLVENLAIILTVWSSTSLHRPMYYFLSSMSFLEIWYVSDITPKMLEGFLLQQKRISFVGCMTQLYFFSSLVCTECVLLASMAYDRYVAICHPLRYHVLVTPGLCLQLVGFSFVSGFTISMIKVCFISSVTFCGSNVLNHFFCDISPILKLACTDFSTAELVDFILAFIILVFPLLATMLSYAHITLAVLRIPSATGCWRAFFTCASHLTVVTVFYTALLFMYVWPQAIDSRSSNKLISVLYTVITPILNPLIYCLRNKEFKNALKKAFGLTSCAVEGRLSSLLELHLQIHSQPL
In short: as §1

OR6C1 = tested on: T4, OR6C1
T4 sequence (whole entry): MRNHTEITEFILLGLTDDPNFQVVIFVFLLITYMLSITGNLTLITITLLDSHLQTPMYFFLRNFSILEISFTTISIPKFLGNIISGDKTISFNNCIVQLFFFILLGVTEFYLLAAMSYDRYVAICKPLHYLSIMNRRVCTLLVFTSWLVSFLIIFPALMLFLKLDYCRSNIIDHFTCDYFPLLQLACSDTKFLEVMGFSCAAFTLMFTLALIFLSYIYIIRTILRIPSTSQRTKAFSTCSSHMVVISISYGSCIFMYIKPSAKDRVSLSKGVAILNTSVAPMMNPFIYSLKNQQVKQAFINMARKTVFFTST
In short: as §1

OR6C2 (Homo sapiens) = target: T5, OR6C2 (Homo sapiens) (UniProt Q9NZP2)
T5 sequence (whole entry): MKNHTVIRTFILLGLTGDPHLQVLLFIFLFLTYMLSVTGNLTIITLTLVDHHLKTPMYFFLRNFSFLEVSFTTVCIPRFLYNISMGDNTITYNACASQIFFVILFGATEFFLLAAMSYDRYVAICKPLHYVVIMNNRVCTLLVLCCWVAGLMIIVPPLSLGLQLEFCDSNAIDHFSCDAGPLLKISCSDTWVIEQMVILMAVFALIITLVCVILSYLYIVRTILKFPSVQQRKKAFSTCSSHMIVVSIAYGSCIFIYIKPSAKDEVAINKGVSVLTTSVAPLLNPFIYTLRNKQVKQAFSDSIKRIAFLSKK
In short: as §1

OR6C3 (Homo sapiens) = target: T6, OR6C3 (Homo sapiens) (UniProt Q9NZP0)
T6 sequence (whole entry): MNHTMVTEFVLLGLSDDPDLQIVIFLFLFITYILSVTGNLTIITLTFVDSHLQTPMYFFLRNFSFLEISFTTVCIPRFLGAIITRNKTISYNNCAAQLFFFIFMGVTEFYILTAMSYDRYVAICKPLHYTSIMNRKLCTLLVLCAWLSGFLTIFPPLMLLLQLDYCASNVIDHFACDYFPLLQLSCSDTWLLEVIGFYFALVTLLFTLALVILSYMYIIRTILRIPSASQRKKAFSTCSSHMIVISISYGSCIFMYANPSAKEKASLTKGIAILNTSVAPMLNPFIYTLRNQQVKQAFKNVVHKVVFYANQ
In short: as §1

OR6C4 = tested on: T7, OR6C4
T7 sequence (whole entry): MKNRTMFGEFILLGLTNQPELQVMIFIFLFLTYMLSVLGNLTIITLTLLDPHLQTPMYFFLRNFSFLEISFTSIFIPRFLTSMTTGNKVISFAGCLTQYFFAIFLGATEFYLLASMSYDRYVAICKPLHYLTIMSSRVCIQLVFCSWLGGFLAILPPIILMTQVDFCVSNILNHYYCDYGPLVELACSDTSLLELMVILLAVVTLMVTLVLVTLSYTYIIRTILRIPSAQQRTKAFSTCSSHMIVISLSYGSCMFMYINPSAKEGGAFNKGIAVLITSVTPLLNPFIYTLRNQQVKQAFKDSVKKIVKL
In short: as §1

OR6C6 (Homo sapiens) = target: T8, OR6C6 (Homo sapiens) (UniProt A6NF89)
T8 sequence (whole entry): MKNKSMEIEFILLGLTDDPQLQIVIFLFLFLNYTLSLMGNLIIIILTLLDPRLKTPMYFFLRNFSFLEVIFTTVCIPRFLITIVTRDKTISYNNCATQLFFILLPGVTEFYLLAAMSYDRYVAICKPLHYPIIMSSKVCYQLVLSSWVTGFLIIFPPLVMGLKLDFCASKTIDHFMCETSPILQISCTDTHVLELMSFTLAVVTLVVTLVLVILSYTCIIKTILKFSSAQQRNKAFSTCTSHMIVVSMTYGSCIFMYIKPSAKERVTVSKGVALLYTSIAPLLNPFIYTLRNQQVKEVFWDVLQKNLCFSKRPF
In short: as §1

OR6C65 (Homo sapiens) = target: T9, OR6C65 (Homo sapiens) (UniProt A6NJZ3)
T9 sequence (whole entry): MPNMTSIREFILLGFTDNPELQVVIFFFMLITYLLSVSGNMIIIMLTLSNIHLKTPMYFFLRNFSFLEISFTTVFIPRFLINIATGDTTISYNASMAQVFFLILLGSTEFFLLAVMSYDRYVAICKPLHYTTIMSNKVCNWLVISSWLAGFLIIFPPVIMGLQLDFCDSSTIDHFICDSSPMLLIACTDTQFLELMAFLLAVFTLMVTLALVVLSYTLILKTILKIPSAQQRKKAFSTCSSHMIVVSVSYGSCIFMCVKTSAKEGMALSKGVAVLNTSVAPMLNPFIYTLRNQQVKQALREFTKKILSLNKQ
In short: as §1

OR6C74 (Homo sapiens) = target: T10, OR6C74 (Homo sapiens) (UniProt A6NCV1)
T10 sequence (whole entry): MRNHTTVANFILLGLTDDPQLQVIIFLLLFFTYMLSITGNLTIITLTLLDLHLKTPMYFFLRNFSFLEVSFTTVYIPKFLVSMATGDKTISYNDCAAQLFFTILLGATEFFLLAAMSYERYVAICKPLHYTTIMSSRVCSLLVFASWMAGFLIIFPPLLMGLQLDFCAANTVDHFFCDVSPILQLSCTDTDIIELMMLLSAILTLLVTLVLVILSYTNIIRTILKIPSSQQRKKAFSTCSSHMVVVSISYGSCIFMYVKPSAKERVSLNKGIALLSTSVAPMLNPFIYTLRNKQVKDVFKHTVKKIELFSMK
In short: as §1

OR6C75 (Homo sapiens) = target: T11, OR6C75 (Homo sapiens) (UniProt A6NL08)
T11 sequence (whole entry): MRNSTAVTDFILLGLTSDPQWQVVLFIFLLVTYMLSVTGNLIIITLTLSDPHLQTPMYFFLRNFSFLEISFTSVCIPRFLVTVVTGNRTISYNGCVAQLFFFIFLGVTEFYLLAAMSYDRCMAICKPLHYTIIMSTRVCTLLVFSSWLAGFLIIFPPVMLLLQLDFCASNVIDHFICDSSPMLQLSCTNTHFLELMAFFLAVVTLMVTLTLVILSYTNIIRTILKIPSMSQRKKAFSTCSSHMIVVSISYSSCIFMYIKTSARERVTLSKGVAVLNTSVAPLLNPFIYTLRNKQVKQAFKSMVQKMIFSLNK
In short: as §1

OR6C76 (Homo sapiens) = target: T12, OR6C76 (Homo sapiens) (UniProt A6NM76)
T12 sequence (whole entry): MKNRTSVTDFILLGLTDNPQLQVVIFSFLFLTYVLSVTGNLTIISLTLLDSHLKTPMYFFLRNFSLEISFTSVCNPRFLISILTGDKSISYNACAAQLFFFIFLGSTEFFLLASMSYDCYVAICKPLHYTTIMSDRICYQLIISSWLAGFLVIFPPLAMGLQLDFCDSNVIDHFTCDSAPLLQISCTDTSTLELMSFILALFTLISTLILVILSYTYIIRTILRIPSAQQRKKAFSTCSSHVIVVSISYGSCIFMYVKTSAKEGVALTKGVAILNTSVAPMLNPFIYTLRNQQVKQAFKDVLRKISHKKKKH
In short: as §1

OR6F1 (Homo sapiens) = target: T13, OR6F1 (Homo sapiens) (UniProt Q8NGZ6)
T13 sequence (whole entry): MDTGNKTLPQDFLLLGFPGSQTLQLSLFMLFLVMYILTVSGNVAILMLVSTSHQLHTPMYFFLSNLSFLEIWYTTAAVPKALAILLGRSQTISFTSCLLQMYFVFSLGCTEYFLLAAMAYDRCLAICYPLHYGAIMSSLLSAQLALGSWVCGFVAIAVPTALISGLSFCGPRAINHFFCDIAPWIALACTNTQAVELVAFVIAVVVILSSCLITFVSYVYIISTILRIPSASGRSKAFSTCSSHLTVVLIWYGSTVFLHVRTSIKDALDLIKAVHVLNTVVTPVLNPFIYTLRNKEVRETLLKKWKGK
In short: as §1

| Compound | odorant receptor agonist call (OR6B1) | odorant receptor agonist call (OR6B2) | odorant receptor agonist call (OR6B3) | odorant receptor agonist call (OR6C1) | odorant receptor agonist call (OR6C2 (Homo sapiens)) | odorant receptor agonist call (OR6C3 (Homo sapiens)) | odorant receptor agonist call (OR6C4) | odorant receptor agonist call (OR6C6 (Homo sapiens)) | odorant receptor agonist call (OR6C65 (Homo sapiens)) | odorant receptor agonist call (OR6C74 (Homo sapiens)) | odorant receptor agonist call (OR6C75 (Homo sapiens)) | odorant receptor agonist call (OR6C76 (Homo sapiens)) | odorant receptor agonist call (OR6F1 (Homo sapiens)) |
| --- | --- | --- | --- | --- | --- | --- | --- | --- | --- | --- | --- | --- | --- |
| CCCCCCCC=O | inactive | inactive | inactive | inactive | inactive | inactive | inactive | inactive | inactive | inactive | inactive | inactive | inactive |
| CC(C)C(=O)O | inactive | inactive | inactive | inactive | inactive | inactive | inactive | inactive | inactive | inactive | inactive | inactive | inactive |
| CCCCCCCCOC(C)=O | inactive | inactive | inactive | inactive | inactive | inactive | inactive | inactive | inactive | inactive | inactive | inactive | inactive |
| C=CCc1ccc(OC(C)=O)c(OC)c1 | inactive | inactive | inactive | inactive | inactive | inactive | inactive | inactive | inactive | inactive | inactive | inactive | inactive |
| CCCCCCOC(=O)CCC | inactive | inactive | inactive | inactive | inactive | inactive | inactive | inactive | inactive | inactive | inactive | inactive | inactive |
| CC1COCc2cc3c(cc21)C(C)(C)C(C)C3(C)C (centres undefined) | inactive | active | active | active | active | active | active | active | active | active | active | active | active |
| CC12CCC(CC1)C(C)(C)O2 | inactive | inactive | inactive | inactive | inactive | inactive | inactive | inactive | inactive | inactive | inactive | inactive | inactive |
| C=CC(C)(O)CCC=C(C)C (centres undefined) | inactive | inactive | inactive | inactive | inactive | inactive | inactive | inactive | inactive | inactive | inactive | inactive | inactive |
| O=C1CCCCCCCCCCCCCCO1 | inactive | inactive | inactive | inactive | inactive | inactive | inactive | inactive | inactive | inactive | inactive | inactive | inactive |
| CCC=CCCO | inactive | inactive | inactive | inactive | inactive | inactive | inactive | inactive | inactive | inactive | inactive | inactive | inactive |
| C=CCc1ccc(OC)c(OC)c1 | inactive | inactive | inactive | inactive | inactive | inactive | inactive | inactive | inactive | inactive | inactive | inactive | inactive |
| CC1=NC(C)SC1C (centres undefined) | active | inactive | inactive | inactive | inactive | inactive | inactive | inactive | inactive | inactive | inactive | inactive | inactive |
| CC=Cc1ccc(O)c(OC)c1 | inactive | inactive | inactive | inactive | inactive | inactive | inactive | inactive | inactive | inactive | inactive | inactive | inactive |

One compound at a time, from the list above. Values in the order: odorant receptor agonist call (OR6B1)	odorant receptor agonist call (OR6B2)	odorant receptor agonist call (OR6B3)	odorant receptor agonist call (OR6C1)	odorant receptor agonist call (OR6C2 (Homo sapiens))	odorant receptor agonist call (OR6C3 (Homo sapiens))	odorant receptor agonist call (OR6C4)	odorant receptor agonist call (OR6C6 (Homo sapiens))	odorant receptor agonist call (OR6C65 (Homo sapiens))	odorant receptor agonist call (OR6C74 (Homo sapiens))	odorant receptor agonist call (OR6C75 (Homo sapiens))	odorant receptor agonist call (OR6C76 (Homo sapiens))	odorant receptor agonist call (OR6F1 (Homo sapiens))
`CC1COCc2cc3c(cc21)C(C)(C)C(C)C3(C)C` (centres undefined) in the list: inactive	active	active	active	active	active	active	active	active	active	active	active	active
`O=C1CCCCCCCCCCCCCCO1` in the list: inactive	inactive	inactive	inactive	inactive	inactive	inactive	inactive	inactive	inactive	inactive	inactive	inactive
